# According to PubChem BioAssay AID1347076 (National Center for Advancing Translational Sciences (NCATS), 2019):
# The campaign covered roughly 400,000 compounds. About 13,000 (3.2%) were called active. The shares of active, inactive and inconclusive entries below differ from those in the screen. Calls follow the shape of the dose curve; as a rule, active = well fitted cell-killing curve with a large enough effect; inconclusive = small, poorly fitted or top-dose-only effect, or effect the other way; inactive = flat fitted curve, though single readings scatter. Potencies beside an inconclusive call are fits to weak or partial responses and may not hold up.
# Test: qHTS assay for MDR1-selective chemotherapeutics: Primary screen using the drug-selected MDR subline cells KB-V1; also: nearly all actives have a fitted effect of over 60% in size
# Conditions: KB-V1 MDR cells viability, CellTiter-Glo, 72 h; series mostly up to 46.1 µM
# Method in brief: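 Cytotoxicity via CellTiter-Glo luminescence after 72 h compound exposure at 37 degrees C. Cells: drug-selected KB-V1 line, DMEM phenol-red free plus 10% FBS. Compounds tested at multiple concentrations; normalized data fitted to concentration-effect curves.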
# Potency is read from the fitted curve at half-maximal effect.
row,Compound,Potency
1,COc1ncccc1C(=O)N1CCCC(N2CCN(c3ccc(F)cc3)CC2)C1 (stereo not drawn),"inconclusive: 9.2 µM [cytotoxic, partial curve, poor fit]"
2,Cc1ccc(S(=O)(=O)N2CCN(c3ncnc4scc(-c5ccc(F)cc5)c34)CC2)cc1,inactive
3,CC(=O)Nc1cc(C)nn1-c1nc2ccccc2s1,"inconclusive: 16.4 µM [cytotoxic, single point]"
4,CCOc1ccc(C(=O)N/N=C/c2ccccc2[N+](=O)[O-])cc1,"inconclusive: 20.6 µM [cytotoxic, single point]"
5,Cc1ccccc1NC(=O)C(C)OC(=O)CNS(=O)(=O)c1ccc(C#N)cc1 (stereo not drawn),"inconclusive: 29.1 µM [rising, single point]"
6,CCOc1cc(C2NN=C(c3ccc(C)cc3)S2)ccc1O (stereo not drawn),"inconclusive: 20.6 µM [cytotoxic, single point]"
7,CC(=O)c1ccc(N2CCN(S(=O)(=O)c3cccc4nsnc34)CC2)cc1,"inconclusive: 6.51 µM [cytotoxic, partial curve]"
8,O=[N+]([O-])c1ccc(Cl)c(S(=O)(=O)/N=C(/Sc2ccc(Br)cc2)c2ccccc2)c1,inactive
9,COCCNc1nnc(SCC(=O)Nc2sc3c(c2C(=O)c2ccccc2)CCCC3)s1,"inconclusive: 1.3 µM [cytotoxic, partial curve, poor fit]"
10,COCCOC(=O)c1c(C)n(S(=O)(=O)c2ccc(C)cc2)c2ccc(NS(=O)(=O)c3ccc(C)cc3)cc12,inactive
11,Cc1nc(C)c(-c2ccn(S(=O)(=O)c3ccc(Cl)cc3)n2)o1,"inconclusive: 16.4 µM [cytotoxic, partial curve]"
12,O=C(CNC(=O)C1CCCCC1)NC1CCCCC1,"inconclusive: 29.1 µM [rising, single point]"
13,COc1cccc(C=NNc2nnc(NN=Cc3cccc(OC)c3OC)c3ccccc23)c1OC,"inconclusive: 20.6 µM [cytotoxic, single point]"
14,CCN(C(=O)c1cc(Cl)ccc1OC)C1CCCCC1,"inconclusive: 29.1 µM [cytotoxic, single point]"
15,CC(=O)Nc1ccc(OCCC[n+]2ccccc2)cc1,"inconclusive: 3.66 µM [rising, full curve]"
16,COC(=O)c1[nH]c2c(c1C(=O)OC)CCc1ccccc1-2,"inconclusive: 14.6 µM [cytotoxic, single point]"
17,CCOc1ccc(N(C(=O)CC(C)C)S(=O)(=O)c2ccc3c(c2)oc(=O)n3C)cc1,"inconclusive: 20.6 µM [cytotoxic, partial curve, poor fit]"
18,CCOc1ccc(/C=N/NC(=O)CN2CCCCC2)cc1OCC,"inconclusive: 2.59 µM [rising, full curve]"

# Reformatted as tab-separated lines: entries from further up.
row	Compound	Potency
14	CCN(C(=O)c1cc(Cl)ccc1OC)C1CCCCC1	inconclusive: 29.1 µM [cytotoxic, single point]
15	CC(=O)Nc1ccc(OCCC[n+]2ccccc2)cc1	inconclusive: 3.66 µM [rising, full curve]
